Experimental data reported in the supplement of paper PMC11732987, “Enantioselective OTUD7B fragment discovery through chemoproteomics screening and high-throughput optimisation” (Communications Chemistry, 2025).
The other results are listed elsewhere or left out. The data scatter; read single values as rough.

Protein sequences, listed by entry. Tags and fused reporters are not part of them. Lines headed by an entry give the natural chain unless they say otherwise; changes in a name come on top. Residues count along the entry.
UniProt Q9UPP1: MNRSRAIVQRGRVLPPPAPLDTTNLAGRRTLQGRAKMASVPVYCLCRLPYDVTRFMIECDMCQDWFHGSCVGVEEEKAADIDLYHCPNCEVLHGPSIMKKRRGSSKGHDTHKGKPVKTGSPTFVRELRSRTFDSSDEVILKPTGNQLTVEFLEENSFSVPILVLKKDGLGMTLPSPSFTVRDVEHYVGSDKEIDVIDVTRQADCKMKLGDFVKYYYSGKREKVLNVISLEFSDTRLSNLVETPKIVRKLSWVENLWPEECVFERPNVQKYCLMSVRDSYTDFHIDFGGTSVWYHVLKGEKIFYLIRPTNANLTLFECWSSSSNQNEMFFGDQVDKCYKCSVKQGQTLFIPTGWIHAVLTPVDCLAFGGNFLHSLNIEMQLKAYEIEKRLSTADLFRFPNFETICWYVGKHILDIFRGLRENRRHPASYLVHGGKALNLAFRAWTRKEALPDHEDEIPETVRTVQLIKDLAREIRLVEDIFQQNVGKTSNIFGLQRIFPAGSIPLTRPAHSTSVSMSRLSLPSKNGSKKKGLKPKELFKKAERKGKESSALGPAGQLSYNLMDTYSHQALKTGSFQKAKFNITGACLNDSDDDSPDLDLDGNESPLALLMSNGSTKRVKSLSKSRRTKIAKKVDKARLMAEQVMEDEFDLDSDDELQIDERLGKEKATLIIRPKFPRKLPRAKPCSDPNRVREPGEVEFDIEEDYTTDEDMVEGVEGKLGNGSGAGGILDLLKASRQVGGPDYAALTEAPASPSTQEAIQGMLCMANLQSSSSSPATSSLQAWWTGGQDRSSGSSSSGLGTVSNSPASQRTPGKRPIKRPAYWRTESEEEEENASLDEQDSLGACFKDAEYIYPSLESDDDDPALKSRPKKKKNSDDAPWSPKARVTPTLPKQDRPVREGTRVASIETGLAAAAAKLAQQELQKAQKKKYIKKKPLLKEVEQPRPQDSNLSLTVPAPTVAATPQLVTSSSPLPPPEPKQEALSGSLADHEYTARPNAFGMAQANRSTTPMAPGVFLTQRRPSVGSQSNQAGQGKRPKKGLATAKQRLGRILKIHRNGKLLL
UniProt O75925, whole entry, looked up: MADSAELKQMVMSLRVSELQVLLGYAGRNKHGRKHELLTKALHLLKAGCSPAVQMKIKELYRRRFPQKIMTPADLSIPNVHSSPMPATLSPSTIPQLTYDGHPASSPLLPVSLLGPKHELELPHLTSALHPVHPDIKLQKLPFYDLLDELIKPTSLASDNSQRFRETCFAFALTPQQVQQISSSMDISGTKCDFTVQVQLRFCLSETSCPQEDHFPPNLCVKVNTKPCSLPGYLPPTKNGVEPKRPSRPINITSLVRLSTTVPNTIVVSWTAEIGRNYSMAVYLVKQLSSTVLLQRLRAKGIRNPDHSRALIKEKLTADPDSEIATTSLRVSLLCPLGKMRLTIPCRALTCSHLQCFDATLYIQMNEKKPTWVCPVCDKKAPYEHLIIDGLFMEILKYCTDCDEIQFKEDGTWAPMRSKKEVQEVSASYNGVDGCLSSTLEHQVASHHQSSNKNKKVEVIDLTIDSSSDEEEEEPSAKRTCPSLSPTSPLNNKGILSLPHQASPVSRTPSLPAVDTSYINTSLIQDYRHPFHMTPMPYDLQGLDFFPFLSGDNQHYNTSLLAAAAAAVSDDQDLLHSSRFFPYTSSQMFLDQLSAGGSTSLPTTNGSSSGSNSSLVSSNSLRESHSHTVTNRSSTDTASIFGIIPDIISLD
UniProt O75925, 421-453: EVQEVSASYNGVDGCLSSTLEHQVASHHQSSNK
UniProt Q15126: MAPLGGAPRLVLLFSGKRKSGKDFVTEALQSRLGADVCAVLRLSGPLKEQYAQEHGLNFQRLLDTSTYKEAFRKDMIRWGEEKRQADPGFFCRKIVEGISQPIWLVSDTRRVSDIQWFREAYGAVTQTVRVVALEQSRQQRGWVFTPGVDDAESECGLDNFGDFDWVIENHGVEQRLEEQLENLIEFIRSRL
UniProt Q9BSJ6, 28-48: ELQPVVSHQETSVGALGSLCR
UniProt Q5JRX3: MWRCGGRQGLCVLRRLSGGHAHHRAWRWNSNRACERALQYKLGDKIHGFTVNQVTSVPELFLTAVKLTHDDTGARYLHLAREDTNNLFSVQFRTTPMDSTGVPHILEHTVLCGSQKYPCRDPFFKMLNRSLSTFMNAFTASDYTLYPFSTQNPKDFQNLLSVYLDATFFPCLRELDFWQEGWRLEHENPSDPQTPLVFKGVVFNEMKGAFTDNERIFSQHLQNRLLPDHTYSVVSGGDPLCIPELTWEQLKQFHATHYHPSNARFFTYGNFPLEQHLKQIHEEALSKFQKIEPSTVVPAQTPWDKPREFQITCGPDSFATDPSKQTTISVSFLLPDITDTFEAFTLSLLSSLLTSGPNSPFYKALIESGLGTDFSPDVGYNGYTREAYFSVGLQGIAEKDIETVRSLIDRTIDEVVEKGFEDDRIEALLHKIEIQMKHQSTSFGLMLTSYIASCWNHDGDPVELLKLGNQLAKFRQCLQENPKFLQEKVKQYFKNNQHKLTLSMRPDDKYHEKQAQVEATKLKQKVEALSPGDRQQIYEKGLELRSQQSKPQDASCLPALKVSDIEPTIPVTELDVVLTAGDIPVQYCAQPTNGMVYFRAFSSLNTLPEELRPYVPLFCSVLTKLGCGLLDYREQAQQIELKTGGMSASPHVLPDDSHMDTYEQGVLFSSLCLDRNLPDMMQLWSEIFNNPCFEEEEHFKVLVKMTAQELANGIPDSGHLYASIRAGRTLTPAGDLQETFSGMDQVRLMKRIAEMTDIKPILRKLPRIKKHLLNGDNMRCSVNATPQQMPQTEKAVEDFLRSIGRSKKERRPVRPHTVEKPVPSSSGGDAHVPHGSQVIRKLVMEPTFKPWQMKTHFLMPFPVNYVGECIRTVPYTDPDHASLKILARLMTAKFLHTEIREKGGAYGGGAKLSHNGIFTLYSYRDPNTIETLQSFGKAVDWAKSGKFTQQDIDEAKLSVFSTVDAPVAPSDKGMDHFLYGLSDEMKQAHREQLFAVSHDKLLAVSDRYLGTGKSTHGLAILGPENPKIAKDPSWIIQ
UniProt Q6P5Z2: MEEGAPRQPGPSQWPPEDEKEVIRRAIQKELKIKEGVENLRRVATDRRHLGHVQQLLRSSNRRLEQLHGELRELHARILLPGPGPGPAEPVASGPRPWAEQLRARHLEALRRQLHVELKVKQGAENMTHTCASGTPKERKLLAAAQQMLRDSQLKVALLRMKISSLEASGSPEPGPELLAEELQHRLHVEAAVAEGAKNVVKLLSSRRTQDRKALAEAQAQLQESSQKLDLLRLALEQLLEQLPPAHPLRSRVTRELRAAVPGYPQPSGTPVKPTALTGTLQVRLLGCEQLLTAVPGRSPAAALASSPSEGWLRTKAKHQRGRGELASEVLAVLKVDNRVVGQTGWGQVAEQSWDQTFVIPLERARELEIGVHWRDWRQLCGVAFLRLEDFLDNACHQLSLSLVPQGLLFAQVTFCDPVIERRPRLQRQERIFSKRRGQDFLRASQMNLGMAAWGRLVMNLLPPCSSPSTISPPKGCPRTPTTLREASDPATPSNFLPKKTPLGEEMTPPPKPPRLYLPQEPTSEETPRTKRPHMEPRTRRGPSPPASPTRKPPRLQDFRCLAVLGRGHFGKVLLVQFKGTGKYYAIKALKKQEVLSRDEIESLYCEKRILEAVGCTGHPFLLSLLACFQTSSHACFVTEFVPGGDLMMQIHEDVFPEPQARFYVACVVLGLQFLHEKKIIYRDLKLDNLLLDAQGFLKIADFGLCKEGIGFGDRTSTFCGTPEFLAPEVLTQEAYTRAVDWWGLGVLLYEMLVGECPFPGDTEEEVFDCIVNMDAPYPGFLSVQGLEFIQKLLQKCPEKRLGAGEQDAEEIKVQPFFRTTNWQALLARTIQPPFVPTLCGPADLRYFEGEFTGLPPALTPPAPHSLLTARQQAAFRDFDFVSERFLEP
UniProt Q8NCC3: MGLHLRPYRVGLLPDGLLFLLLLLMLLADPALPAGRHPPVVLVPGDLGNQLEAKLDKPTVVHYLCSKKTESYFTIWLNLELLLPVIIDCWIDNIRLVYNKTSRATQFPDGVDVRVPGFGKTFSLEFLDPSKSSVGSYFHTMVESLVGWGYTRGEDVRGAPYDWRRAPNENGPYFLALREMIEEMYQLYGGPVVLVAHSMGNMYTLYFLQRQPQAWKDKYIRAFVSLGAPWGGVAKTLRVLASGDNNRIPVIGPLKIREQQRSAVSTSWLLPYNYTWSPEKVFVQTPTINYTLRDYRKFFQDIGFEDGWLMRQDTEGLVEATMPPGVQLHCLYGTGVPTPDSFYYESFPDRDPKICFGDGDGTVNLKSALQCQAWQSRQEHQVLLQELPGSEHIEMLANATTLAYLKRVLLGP
UniProt Q7Z4H8: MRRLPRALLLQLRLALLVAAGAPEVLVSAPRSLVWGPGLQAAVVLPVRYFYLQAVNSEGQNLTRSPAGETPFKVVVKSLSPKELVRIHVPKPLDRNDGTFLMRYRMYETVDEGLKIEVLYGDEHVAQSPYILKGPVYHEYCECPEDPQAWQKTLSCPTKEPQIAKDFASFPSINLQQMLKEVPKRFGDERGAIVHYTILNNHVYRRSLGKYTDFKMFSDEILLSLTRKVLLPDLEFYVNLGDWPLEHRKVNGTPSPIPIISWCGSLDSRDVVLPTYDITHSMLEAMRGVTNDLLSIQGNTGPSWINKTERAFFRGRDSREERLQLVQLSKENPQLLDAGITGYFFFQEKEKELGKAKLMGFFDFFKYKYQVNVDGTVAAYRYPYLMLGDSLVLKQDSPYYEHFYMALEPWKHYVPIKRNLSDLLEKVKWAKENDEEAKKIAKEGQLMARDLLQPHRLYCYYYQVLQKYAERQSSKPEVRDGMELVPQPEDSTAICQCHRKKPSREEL
UniProt P53350: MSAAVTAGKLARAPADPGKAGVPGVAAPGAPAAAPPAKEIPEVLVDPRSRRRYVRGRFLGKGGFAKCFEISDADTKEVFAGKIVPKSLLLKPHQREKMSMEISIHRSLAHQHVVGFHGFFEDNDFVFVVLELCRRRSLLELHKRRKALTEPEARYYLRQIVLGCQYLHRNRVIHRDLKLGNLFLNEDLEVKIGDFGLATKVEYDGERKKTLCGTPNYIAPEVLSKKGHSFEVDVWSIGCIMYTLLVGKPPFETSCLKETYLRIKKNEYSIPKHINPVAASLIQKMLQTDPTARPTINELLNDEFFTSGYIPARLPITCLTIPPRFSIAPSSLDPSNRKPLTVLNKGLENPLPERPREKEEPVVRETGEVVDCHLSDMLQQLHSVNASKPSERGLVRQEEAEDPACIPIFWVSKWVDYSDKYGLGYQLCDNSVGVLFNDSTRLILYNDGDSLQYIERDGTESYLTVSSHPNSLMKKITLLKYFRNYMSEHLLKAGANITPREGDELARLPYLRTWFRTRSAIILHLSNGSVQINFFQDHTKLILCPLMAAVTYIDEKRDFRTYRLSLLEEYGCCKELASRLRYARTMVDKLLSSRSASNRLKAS
UniProt Q9GZP4: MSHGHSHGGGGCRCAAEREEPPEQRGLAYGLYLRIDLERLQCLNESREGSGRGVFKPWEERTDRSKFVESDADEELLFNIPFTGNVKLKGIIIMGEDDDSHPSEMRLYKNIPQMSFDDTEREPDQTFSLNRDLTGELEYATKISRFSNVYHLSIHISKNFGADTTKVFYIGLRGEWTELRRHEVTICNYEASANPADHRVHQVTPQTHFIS
UniProt Q9NVS9: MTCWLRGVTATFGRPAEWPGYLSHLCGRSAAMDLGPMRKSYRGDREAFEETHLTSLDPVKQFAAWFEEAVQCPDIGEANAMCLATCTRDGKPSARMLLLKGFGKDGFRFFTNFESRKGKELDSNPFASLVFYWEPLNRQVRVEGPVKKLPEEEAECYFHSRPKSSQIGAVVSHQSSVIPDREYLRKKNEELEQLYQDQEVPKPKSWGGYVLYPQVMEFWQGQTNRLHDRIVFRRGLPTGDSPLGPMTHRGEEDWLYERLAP

Compound: ClCC(=O)N[C@H]1CCCc2ccccc12
Assay: log2 mean competition ratio of IA-DTB cysteine labelling (DMSO/compound) (log2 ratio); higher = stronger cysteine engagement by compound
Conditions: treatment time: 4 h, cell line lysate: HEK293T
Procedure: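 IA-DTB competitive cysteine chemoproteomics in HEK293T RIPA lysate. Lysates were treated with compound 29 or 30 at 50 or 200 µM for 4 h, then IA-DTB (500 µM, 1 h), trypsin-digested, NeutrAvidin-enriched and analysed by diaPASEF. Competition ratio = intensity DMSO / intensity compound (n=4 treated, n=64 DMSO); binding: mean log2 CR ≥ 1 and p ≤ 0.05 plus QC filters. Target is the cysteine site.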

Row | Target | log2 mean competition ratio (50 µM) | log2 mean competition ratio (200 µM)
1 | PLCE1 C375 | -0.416 | -0.151
2 | PHF8 C684 (UniProt Q9UPP1) | -0.0849 | 0.0891
3 | PIAS1 C49 (UniProt O75925) | -0.252 | -0.152
4 | PMVK C92 (UniProt Q15126) | 0.152 | 0.244
5 | PIMREG C47 (UniProt Q9BSJ6) | -0.36 | -0.292
6 | PITRM1 C556 (UniProt Q5JRX3) | -0.275 | -0.0173
7 | POGZ C1230 (UniProt Q7Z3K3) | 0.819 | 0.332
8 | PKN3 C131 (UniProt Q6P5Z2) | -0.224 | 0.0522
9 | PLEKHH3 C682 | 0.464 | 0.097
10 | PLEKHA3 C216 (UniProt Q9HB20) | -0.214 | 0.204
11 | PIAS3 C327 | -0.429 | -0.0166
12 | PLA2G15 C355 (UniProt Q8NCC3) | -0.0523 | 0.0674
13 | POLR1B C847 (UniProt Q9H9Y6) | -0.641 | -0.041
14 | PIAS4 C326 (UniProt Q8N2W9) | -0.0695 | -0.142
15 | POLD3 C129 (UniProt Q15054) | 0.0804 | 0.233
16 | POLR1A C582 (UniProt O95602) | 0.306 | 0.0182
17 | PIAS1 C335 (UniProt O75925) | -0.527 | 0.00752
18 | POLA2 C198 (UniProt Q14181) | -0.218 | -0.0622
19 | POGLUT3 C156 (UniProt Q7Z4H8) | 0.0756 | -0.0477
20 | PLK1 C212 (UniProt P53350) | 0.442 | 0.406
21 | PIGT C272 | -0.0138 | -0.04
22 | PHGDH C295 | -0.118 | -0.114
23 | PM20D2 C303 (UniProt Q8IYS1) | -0.221 | 0.0552
24 | PIAS1 C435 (UniProt O75925) | -0.41 | -0.25
25 | PITHD1 C187 (UniProt Q9GZP4) | -0.139 | 0.0285
26 | PNKP C353 (UniProt Q96T60) | -0.281 | 0.0766
27 | PIK3C2A C804 (UniProt O00443) | 0.159 | 0.193
28 | PIAS2 C441 (UniProt O75928) | -0.0157 | 0.136
29 | PNPO C156 (UniProt Q9NVS9) | 0.0244 | -0.0125

Not a retest: an excerpt of the list.
Row | Target | log2 mean competition ratio (50 µM) | log2 mean competition ratio (200 µM)
1 | PLCE1 C375 | -0.416 | -0.151
2 | PHF8 C684 (UniProt Q9UPP1) | -0.0849 | 0.0891
